Results taken from PMC8195999.
No constants are given. Whether binding was seen depends on the method and setting. In cells and extracts the contact can be indirect. Some entries that bind do so weakly or less than the wild type.

Chains of the proteins cited; added tags and fusions are not shown.
UniProt O54917: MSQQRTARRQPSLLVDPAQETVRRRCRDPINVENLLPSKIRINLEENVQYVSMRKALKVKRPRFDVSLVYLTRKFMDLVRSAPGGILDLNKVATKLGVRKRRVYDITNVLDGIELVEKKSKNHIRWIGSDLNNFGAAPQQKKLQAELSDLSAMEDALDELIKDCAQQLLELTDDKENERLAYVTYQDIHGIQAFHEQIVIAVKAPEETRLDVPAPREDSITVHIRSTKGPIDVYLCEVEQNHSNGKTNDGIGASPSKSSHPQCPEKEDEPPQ
UniProt P59178: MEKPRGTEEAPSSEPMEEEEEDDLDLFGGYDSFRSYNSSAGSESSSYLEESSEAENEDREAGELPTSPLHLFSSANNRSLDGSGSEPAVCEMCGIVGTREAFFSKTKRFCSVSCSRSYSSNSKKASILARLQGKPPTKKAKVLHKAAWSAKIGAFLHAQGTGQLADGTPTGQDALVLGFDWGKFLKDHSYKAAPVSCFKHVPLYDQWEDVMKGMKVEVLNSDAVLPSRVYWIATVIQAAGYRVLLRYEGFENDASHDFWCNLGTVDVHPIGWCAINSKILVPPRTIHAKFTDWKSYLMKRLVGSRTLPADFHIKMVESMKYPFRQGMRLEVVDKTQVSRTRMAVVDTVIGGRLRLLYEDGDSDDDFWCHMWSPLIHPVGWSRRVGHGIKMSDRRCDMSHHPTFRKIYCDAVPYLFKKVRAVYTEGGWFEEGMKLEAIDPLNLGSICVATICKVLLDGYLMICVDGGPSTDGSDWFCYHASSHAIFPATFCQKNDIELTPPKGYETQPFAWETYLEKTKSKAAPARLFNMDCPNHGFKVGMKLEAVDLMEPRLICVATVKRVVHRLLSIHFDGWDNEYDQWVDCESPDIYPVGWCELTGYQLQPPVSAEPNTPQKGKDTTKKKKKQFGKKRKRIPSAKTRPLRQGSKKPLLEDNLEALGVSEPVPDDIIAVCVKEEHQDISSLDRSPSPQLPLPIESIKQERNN
UniProt A2AWL7: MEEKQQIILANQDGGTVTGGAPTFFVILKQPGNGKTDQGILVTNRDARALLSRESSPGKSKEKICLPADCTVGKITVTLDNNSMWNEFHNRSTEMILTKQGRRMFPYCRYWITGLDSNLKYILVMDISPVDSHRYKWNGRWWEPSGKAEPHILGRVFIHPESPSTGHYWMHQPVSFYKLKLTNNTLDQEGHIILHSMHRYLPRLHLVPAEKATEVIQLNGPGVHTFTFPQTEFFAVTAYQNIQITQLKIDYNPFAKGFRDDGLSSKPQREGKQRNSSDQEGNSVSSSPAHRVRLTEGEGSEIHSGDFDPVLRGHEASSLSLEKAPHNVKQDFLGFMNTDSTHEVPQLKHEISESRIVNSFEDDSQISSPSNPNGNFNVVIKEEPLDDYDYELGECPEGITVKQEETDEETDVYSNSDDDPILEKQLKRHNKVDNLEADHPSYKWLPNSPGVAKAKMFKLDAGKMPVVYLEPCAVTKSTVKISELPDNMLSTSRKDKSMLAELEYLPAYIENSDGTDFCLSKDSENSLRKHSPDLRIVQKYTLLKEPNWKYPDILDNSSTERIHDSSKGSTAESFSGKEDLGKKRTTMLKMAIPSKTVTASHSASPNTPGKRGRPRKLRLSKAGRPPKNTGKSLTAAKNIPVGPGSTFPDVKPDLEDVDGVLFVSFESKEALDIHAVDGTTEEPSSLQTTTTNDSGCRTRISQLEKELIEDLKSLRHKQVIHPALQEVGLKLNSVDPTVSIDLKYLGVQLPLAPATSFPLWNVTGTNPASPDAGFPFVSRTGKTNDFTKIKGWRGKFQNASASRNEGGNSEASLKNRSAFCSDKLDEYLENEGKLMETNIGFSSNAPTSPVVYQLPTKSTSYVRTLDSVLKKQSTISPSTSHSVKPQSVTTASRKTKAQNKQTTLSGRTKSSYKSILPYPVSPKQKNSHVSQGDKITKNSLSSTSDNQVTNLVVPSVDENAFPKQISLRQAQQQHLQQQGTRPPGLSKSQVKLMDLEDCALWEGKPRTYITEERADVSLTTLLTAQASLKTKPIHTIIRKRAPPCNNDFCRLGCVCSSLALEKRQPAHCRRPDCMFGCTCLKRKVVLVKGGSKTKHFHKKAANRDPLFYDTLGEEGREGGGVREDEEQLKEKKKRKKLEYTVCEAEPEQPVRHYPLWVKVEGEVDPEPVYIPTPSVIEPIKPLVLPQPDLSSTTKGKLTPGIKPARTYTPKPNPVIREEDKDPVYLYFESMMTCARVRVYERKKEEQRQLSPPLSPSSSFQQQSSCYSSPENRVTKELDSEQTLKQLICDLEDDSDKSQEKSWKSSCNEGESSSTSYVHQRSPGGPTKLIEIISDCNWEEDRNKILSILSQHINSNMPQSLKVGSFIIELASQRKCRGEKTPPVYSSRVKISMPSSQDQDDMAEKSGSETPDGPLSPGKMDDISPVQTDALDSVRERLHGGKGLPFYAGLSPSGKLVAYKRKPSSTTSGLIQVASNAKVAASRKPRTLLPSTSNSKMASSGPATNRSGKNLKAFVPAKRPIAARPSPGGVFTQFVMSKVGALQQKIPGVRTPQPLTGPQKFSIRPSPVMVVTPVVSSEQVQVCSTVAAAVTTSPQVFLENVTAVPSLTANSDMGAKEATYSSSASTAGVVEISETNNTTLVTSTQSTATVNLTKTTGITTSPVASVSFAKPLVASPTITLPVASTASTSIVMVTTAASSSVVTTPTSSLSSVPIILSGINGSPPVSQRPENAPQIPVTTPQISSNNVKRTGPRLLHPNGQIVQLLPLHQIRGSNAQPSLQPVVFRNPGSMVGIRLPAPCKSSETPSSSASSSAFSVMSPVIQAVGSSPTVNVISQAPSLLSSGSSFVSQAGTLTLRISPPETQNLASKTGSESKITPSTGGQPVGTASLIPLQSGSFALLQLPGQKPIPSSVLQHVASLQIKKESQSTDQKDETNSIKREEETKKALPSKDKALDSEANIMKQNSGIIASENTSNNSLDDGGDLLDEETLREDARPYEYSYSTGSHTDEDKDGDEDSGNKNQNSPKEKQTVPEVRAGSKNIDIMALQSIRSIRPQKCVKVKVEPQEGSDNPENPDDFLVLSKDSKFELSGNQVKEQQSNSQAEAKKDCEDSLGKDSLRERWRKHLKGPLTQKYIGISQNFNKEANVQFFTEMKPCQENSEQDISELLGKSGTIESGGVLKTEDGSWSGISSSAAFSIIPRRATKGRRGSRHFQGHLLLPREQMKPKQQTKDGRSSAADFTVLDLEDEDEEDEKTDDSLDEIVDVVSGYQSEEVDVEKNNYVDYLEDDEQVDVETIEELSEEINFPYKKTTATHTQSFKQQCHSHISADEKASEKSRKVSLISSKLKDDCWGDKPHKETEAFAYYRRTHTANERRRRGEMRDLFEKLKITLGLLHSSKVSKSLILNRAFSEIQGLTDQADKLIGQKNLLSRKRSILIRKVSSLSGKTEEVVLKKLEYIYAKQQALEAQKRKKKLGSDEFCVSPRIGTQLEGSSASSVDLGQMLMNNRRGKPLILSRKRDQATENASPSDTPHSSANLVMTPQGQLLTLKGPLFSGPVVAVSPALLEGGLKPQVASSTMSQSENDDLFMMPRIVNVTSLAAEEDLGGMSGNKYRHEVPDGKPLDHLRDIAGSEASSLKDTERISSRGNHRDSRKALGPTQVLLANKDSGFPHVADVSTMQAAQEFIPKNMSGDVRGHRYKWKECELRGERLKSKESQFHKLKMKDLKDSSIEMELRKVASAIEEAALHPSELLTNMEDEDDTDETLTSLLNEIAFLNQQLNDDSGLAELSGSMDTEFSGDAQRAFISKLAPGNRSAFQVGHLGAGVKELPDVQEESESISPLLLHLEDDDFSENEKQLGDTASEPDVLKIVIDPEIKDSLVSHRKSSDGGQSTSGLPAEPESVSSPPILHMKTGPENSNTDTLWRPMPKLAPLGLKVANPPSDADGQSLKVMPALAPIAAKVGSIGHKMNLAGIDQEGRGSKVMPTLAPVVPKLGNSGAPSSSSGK

B1: PCGF6 (protein, UniProt Q99NA9 1-353)
chain: MDEAETDATENKRASEAKRASAMPPPPPPPPPISPPALIPAPAAGEEGPASLGQAGAAGCSRSRPPALEPERSLGRLRGRFEDYDEELEEEEEMEEEEEEEEEMSHFSLRLESGRADSEDEEERLINLVELTPYILCSICKGYLIDATTITECLHTFCKSCIVRHFYYSNRCPKCNIVVHQTQPLYNIRLDRQLQDIVYKLVINLEEREKKQMHDFYKERGLEVPKPAAPQPVPSSKGKTKKVLESVFRIPPELDMSLLLEFIGANEDTGHFKPLEKKFVRVSGEATIGHVEKFLRRKMGLDPACQVDIICGDHLLERYQTLREIRRAIGDTAMQDGLLVLHYGLVVSPLKIT

Molecular target: 3×HA-E2F6 (UniProt O54917)
Experiment: co-IP; anti-HA magnetic beads (Pierce) on 1 mg nuclear extract of E14TG2a ESCs expressing 3×HA-E2F6, overnight at 4 °C; wash 15 mM Tris pH 8, 150 mM NaCl, 0.05% Triton; western blotting; control: E14TG2a cells not expressing 3×HA-E2F6

binding, binds:
L3MBTL2 (from UniProt P59178 1-703)
MGA (from UniProt A2AWL7 1-3003)
B1
